Experimental data published in PubChem BioAssay AID504444 (National Center for Advancing Translational Sciences (NCATS), 2011).
Out of some 360,000 compounds screened, about 7,500 (2.1%) were called active. Inconclusive means that the source gave no clear call. Such entries were picked first, then a sample of the others. Calls follow the shape of the dose curve; as a rule, active = well fitted inhibition curve with a large enough effect; inconclusive = small, poorly fitted or top-dose-only effect, or effect the other way; inactive = flat fitted curve, though single readings scatter. Potencies beside an inconclusive call are fits to weak or partial responses and may not hold up.

Test: Nrf2 qHTS screen for inhibitors; also: nearly all actives have a fitted effect of over 60% in size
Settings: A549 ARE-Fluc reporter, luciferase luminescence, 18-24 h; series mostly up to 46 µM
Outline: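 Quantitative HTS in A549 cells stably bearing an antioxidant response element-firefly luciferase construct. Inhibition of Nrf2-driven transcription was scored by luminescence after 18-24 h of compound exposure at 37 °C.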
Potency is read from the fitted curve at half-maximal effect.

| SMILES | Potency |
| --- | --- |
| COc1ccc(OC)c(C2CC(c3c(-c4ccccc4)c4cc(Cl)ccc4[nH]c3=O)=NN2S(C)(=O)=O)c1 (centres undefined) | inconclusive: 11.6 µM [falling, partial curve] |
| O=C(Nc1ccccc1)c1ccc(S(=O)(=O)N2CCOCC2)cc1 | inconclusive: 10.3 µM [activator, partial curve] |
| Cc1ccc(C(=O)c2cnc3cc4c(cc3c2S(=O)(=O)c2ccccc2)OCCO4)cc1 | inconclusive: 23.1 µM [activator, single point] |
| C/C(=N\NC(=O)c1ccn[nH]1)c1cn(C)nc1C | inconclusive: 29.1 µM [activator, single point] |
| O=C(NCc1ccccc1)c1ccc(CSc2nc3cccnc3n2Cc2cccc(F)c2)cc1 | inconclusive: 25.9 µM [falling, partial curve, poor fit] |
| C/C(=N\NC(=O)c1nnn(-c2nonc2N)c1CN(C)c1ccccc1)c1cccnc1 | inactive |
| CCCCn1nc(NC(=O)c2cccc(Cl)c2)c2cc3ccccc3nc21 | inactive |
| O=S(=O)(Nc1cccc2cccnc12)c1ccccc1O | inconclusive: 0.231 µM [falling, full curve, poor fit] |
| O=C(Nc1ccccc1)Nc1ccc(C(=O)N2CCCC2)cc1 | inconclusive: 2.91 µM [activator, partial curve] |
| Cc1cc2sc3nc(=O)n(-c4ccccc4)c(=O)n3c2cc1C | inconclusive: 20.6 µM [activator, partial curve] |
| O=C(NCc1cccs1)c1nc2c(nnn2Cc2ccc(F)cc2)c(=O)[nH]1 | inconclusive: 18.4 µM [falling, single point] |
| Cc1ccc(S(=O)(=O)N(CC(=O)N2CCN(c3ccc(F)cc3)CC2)C2CCCCC2)cc1 | inconclusive: 29.1 µM [falling, single point] |
| O=C(c1ccncc1)c1ccc(Br)cc1 | inconclusive: 1.64 µM [activator, full curve, poor fit] |
| O=C(OCc1cc(=O)n2ccsc2n1)c1ccccc1NCCO | inconclusive: 18.4 µM [activator, partial curve] |
| COc1ccc(C(=O)N(C)CCCC2CCCC2)cc1OC1CCN(C(C)=O)CC1 | inconclusive: 20.6 µM [falling, partial curve, poor fit] |
| CC(=O)c1cccc(NC(=O)Nc2ccc3c(c2)N(C)C(=O)CS3)c1 | active: 13 µM |
| Cc1ccc(-c2nc(CCN3C(=O)c4ccccc4C3=O)cs2)cc1 | inactive |
| CCOc1ccc(CNCc2c(C(=O)O)n(Cc3ccc(C)cc3)c3cc(C)ccc23)cc1 | inconclusive: 29.1 µM [falling, single point] |
| CCCC(C(=O)NCc1ccco1)N(C(=O)CNS(=O)(=O)c1ccccc1)c1ccc(OC)cc1 (centres undefined) | inactive |
| COc1ccc(C2C(C(=O)O)CC(=O)N2c2ccc(OC)cc2)cc1 (centres undefined) | inconclusive: 11.6 µM [falling, partial curve, poor fit] |
| CNc1ccc(C(=O)Oc2cc(O/N=[N+](\[O-])N(C)C)c([N+](=O)[O-])cc2[N+](=O)[O-])cc1 | inconclusive: 25.9 µM [activator, partial curve] |
| Cc1c(Cl)cccc1NC(=O)CN(CCc1ccccc1)S(=O)(=O)c1ccccc1 | inconclusive: 23.1 µM [falling, single point] |

A run of entries of the results above, for reference:

| SMILES | Potency |
| --- | --- |
| Cc1ccc(S(=O)(=O)N(CC(=O)N2CCN(c3ccc(F)cc3)CC2)C2CCCCC2)cc1 | inconclusive: 29.1 µM [falling, single point] |
| O=C(c1ccncc1)c1ccc(Br)cc1 | inconclusive: 1.64 µM [activator, full curve, poor fit] |

The results go on:

| SMILES | Potency |
| --- | --- |
| CSc1ccccc1NC(=O)C1CC(c2ccccc2O)=NO1 (centres undefined) | inconclusive: 20.6 µM [activator, single point] |
| Cc1cccc(C)c1Nc1nnc(SCC(=O)c2ccc3c(c2)NC(=O)CO3)s1 | inactive |
| CC(NC(=S)Nc1ccc(F)cc1)C(c1cccs1)N1CCOCC1 (centres undefined) | inconclusive: 0.0046 µM [falling, full curve, poor fit] |
| CC1(C)Cc2c(sc3c2c(=N)n(Cc2ccco2)c(=O)n3Cc2ccc(Cl)cc2)CO1 | inconclusive: 18.4 µM [falling, single point] |
| c1ccc(Nc2nc(NCc3ccco3)nc3nccnc23)cc1 | inactive |
| Cc1ccc(N(CC(=O)NC2CCCC2)C(=O)CCC(=O)Nc2nccs2)cc1C | inconclusive: 29.1 µM [activator, single point] |
| CN(CCc1ccccc1)C(=O)c1ccc(NC(=O)Cc2ccc(NC(=O)C3CCCN(C(=O)C4CCC4)C3)cc2)cc1 (centres undefined) | inconclusive: 13 µM [falling, partial curve] |
| Nc1ncnc(Oc2ccccc2F)c1[N+](=O)[O-] | inconclusive: 29.1 µM [activator, single point] |
| C=C(C)CNC(=S)N/N=C(\C)c1cccc(NC(C)=O)c1 | inconclusive: 7.31 µM [falling, partial curve, poor fit] |
| CCCOc1ccc(CNC(=O)Cn2ncn3c(cc4sc(CC)cc43)c2=O)cc1 | inactive |
| Cc1cccc(CCNS(=O)(=O)c2ccc3c(c2)NC(=O)CS3)c1 | inconclusive: 29.1 µM [falling, single point] |
| COCc1cc([C@@H]2C[C@H]3CN(c4ccccc4)C(=O)[C@]34CCCN24)ccc1OC | inactive |
| CCC1CCCCN1CCNC(=O)CNS(=O)(=O)c1ccc2nc(C)sc2c1 (centres undefined) | inactive |
| Cc1ccc(S(=O)(=O)N(C)c2cc(S(=O)(=O)N3CCOCC3)c(C)cc2C)cc1 | inconclusive: 16.4 µM [falling, single point] |
| Cc1cc(Br)c(S(=O)(=O)NCc2ccncc2)cc1C | active: 3.66 µM |
| CC[N+]1(CC)CC2=Cc3c(ccc4ccccc34)CC2C1 (centres undefined) | inconclusive: 13 µM [falling, partial curve] |
| COc1cccc(CN(C)C(=O)c2ccccc2SCC(=O)N2CCCC2)c1 | inconclusive: 2.31 µM [activator, partial curve, poor fit] |
| CCOC(=O)/C(C#N)=C/c1c(Oc2cccc(C)c2)nc2ccccn2c1=O | inconclusive: 25.9 µM [falling, partial curve, poor fit] |
| O=C(CCc1nc(-c2ccc(Cl)cc2)no1)NC1CCCC1 | inconclusive: 6.51 µM [falling, partial curve, poor fit] |
| CCN(CC)c1ccc(C(=O)Nn2cnc3ccccc3c2=O)cc1 | inconclusive: 5.8 µM [activator, partial curve] |
| COc1ccc(Cc2noc(CN3CCN(c4ccc(Cl)cn4)CC3)n2)cc1OC | active: 25.9 µM |
| COc1ccc(OC)c(NC(=O)COc2ccc(S(=O)(=O)N3CCCC3)cc2)c1 | inconclusive: 1.64 µM [falling, full curve, poor fit] |

Rewritten in CSV form: entries from further up.
SMILES,Potency
CSc1ccccc1NC(=O)C1CC(c2ccccc2O)=NO1 (centres undefined),"inconclusive: 20.6 µM [activator, single point]"
Cc1cccc(C)c1Nc1nnc(SCC(=O)c2ccc3c(c2)NC(=O)CO3)s1,inactive
CC(NC(=S)Nc1ccc(F)cc1)C(c1cccs1)N1CCOCC1 (centres undefined),"inconclusive: 0.0046 µM [falling, full curve, poor fit]"
Nc1ncnc(Oc2ccccc2F)c1[N+](=O)[O-],"inconclusive: 29.1 µM [activator, single point]"
C=C(C)CNC(=S)N/N=C(\C)c1cccc(NC(C)=O)c1,"inconclusive: 7.31 µM [falling, partial curve, poor fit]"
CCCOc1ccc(CNC(=O)Cn2ncn3c(cc4sc(CC)cc43)c2=O)cc1,inactive
Cc1cccc(CCNS(=O)(=O)c2ccc3c(c2)NC(=O)CS3)c1,"inconclusive: 29.1 µM [falling, single point]"
COCc1cc([C@@H]2C[C@H]3CN(c4ccccc4)C(=O)[C@]34CCCN24)ccc1OC,inactive
Cc1ccc(S(=O)(=O)N(C)c2cc(S(=O)(=O)N3CCOCC3)c(C)cc2C)cc1,"inconclusive: 16.4 µM [falling, single point]"
Cc1cc(Br)c(S(=O)(=O)NCc2ccncc2)cc1C,active: 3.66 µM
COc1cccc(CN(C)C(=O)c2ccccc2SCC(=O)N2CCCC2)c1,"inconclusive: 2.31 µM [activator, partial curve, poor fit]"
CCN(CC)c1ccc(C(=O)Nn2cnc3ccccc3c2=O)cc1,"inconclusive: 5.8 µM [activator, partial curve]"
COc1ccc(Cc2noc(CN3CCN(c4ccc(Cl)cn4)CC3)n2)cc1OC,active: 25.9 µM
COc1ccc(OC)c(NC(=O)COc2ccc(S(=O)(=O)N3CCCC3)cc2)c1,"inconclusive: 1.64 µM [falling, full curve, poor fit]"

Continuation:

| SMILES | Potency |
| --- | --- |
| c1ccc(Cn2cc(-c3ccccc3)cn2)cc1 | inconclusive: 16.4 µM [activator, partial curve, poor fit] |
| Cc1cc(C)cc(NC(=O)COc2coc(CN3CCc4ccccc4C3)cc2=O)c1 | inconclusive: 29.1 µM [falling, single point] |
| O=C(C1CCC(CNS(=O)(=O)c2cccc3cccnc23)CC1)N1CCc2ccccc21 (centres undefined) | inconclusive: 29.1 µM [falling, single point] |
| O=S(=O)(c1ccc(NC(=S)N/N=C/c2ccc(Oc3ccccc3)cc2)cc1)N1CCOCC1 | inactive |
| Cn1c(=O)c(=O)n(C)c2cc(S(=O)(=O)CCC(=O)Nc3ccc(F)cc3)ccc21 | inconclusive: 18.4 µM [activator, single point] |
| CC(=O)Nc1ccc(NC(=O)C/C(C)=N/NC(=O)COc2cc(C)c(Br)cc2Br)cc1 | inactive |
| O=C(Nc1cccc(NC(=O)c2ccc(-c3cccc(Br)c3)o2)c1)c1ccco1 | inconclusive: 20.6 µM [falling, single point] |
| CCOc1ccc(C2Nc3c(C)cccc3-c3cc(C)nn32)cc1 (centres undefined) | inactive |
| O=C1COc2ccc(C(=O)CSc3nnc(NCc4ccccc4)s3)cc2N1 | inconclusive: 29.1 µM [falling, single point] |
| Cc1cc(N2CCC(C(=O)N3CCN(c4cccc(C)c4C)CC3)CC2)n2ncnc2n1 | active: 14.6 µM |
| COc1ccc(C(=O)N/N=C/c2ccccc2OC(=O)c2ccccc2)cc1 | inconclusive: 29.1 µM [activator, single point] |
| COc1ccc(-c2nc3scc(-c4ccc(OC)c(OC)c4)c3c(=O)o2)cc1 | inconclusive: 32.6 µM [activator, single point] |
| Cc1ccc(Cn2c(CCC(=O)O)nc3ncccc3c2=O)cc1 | inconclusive: 0.92 µM [falling, full curve] |
| COc1cc(NC(=O)CN2C(=O)C(c3ccccc3)=NC23CCCCCC3)cc(OC)c1 | inconclusive: 32.6 µM [falling, single point] |
| CN(Cc1cn(C)nc1-c1ccc(Oc2ccccc2)cc1)C1CCOC1 (centres undefined) | inconclusive: 0.259 µM [falling, full curve, poor fit] |
| Cc1sc2nc(C3CC3)nc(N3CCN(C(=O)c4ccc(F)cc4)CC3)c2c1C | inconclusive: 29.1 µM [falling, single point] |
| Cc1ccc(-c2noc(Cn3nc(C(=O)O)c4ccccc4c3=O)n2)cc1 | inconclusive: 29.1 µM [activator, single point] |
| Cc1oc2ncnc(N3CCOCC3)c2c1C(=O)N(Cc1ccccc1)C(C)C | inconclusive: 29.1 µM [activator, single point] |
| Cc1ccccc1NC(=S)NNC(=O)c1cccc(Br)c1 | inconclusive: 4.11 µM [activator, full curve] |
| CCC(=O)N(CC)c1nc(-c2ccc(OC)cc2)cs1 | inconclusive: 18.4 µM [activator, partial curve, poor fit] |
